In US12193465B2, “Materials and methods for extending shelf-life of foods” (JP Laboratories, Inc., priority 2021, dated 2025):
For part of these data: At least one read-out could not be matched to a standard name with certainty. For part of these data: For at least one compound, name, drawing or mass did not settle the structure. Some results were stated once for a whole list of compounds, not compound by compound.

What was measured:
fungus = experiment: Fungus growth on treated foods stored in closed containers at room temperature
From the text: (§1) Most of the foods changed color or texture.
Glass jars and bottles were also used. The containers were snap-closed or with a lid.
(§2) These bags were sealed with a heat sealer.
The assembly was shaken periodically.

[1] = Curdling / cream / solidification of milk; conditions: 0.07 g, control 3 days
From the text: as §1

black fungus = experiment: Fungus growth in edible wax coating formulation; conditions: 0.2 g in about 50 g edible candelilla wax suspension; control ten days
[2] = General shelf-life extension of foods (spoilage criteria of Example 9)
Procedure: All studies were conducted at a room temperature of about 25° C. To determine the effectiveness of a shelf-life extender, a control sample which was untreated with any shelf-life extenders, was tested identical to the test samples. […] All studies in those Examples of Tables 1-6 were conducted in closed plastic or glass containers. Containers, such as plastic containers, without or with lids having holes can be used if it is advantageous to let excess moisture escape or to prevent condensation of moisture released by some produce.
Food exposed to preservatives or by a sachet was placed in typically polystyrene or acrylic containers depending upon the size and number of food items. Glass jars and bottles were also used. The containers were snap-closed or with a lid. The containers were purchased mainly from Amazon or Webstaurant.com store. When needed, plastic containers with holes or without lids were used.
For controlled exposure and a constant supply of a preservative to foods, sachets containing one or more drops of preservatives were used. Sachets were made by placing an appropriate amount of a preservative in a plastic bag containing a piece of paper and heat sealing the bag. The sachet bag materials used were Tyvek® for solid preservative, polyethylene, polyester and high barrier multilayer films were used for liquid preservatives. These bags were sealed with a heat sealer. The sachet was typically applied on one side of the container containing food.
A piece of paper napkin was taped inside a 100 microns thick polyethylene or polyester Ziploc bag. The size of the bag varied from ˜20 cm×30 cm to ˜60 cm×90 cm depended on the sample with sandwich bags up to gallon bags being exemplary. The paper napkin was wetted with 0.1-0.5 ml of a preservative or a mixture of preservatives. A tray of aluminum, stainless steel or glass containing the foods was placed inside the plastic (polyethylene, polyester and multilayer-laminated) bag and almost closed by locking the Ziploc. […]

[3] = Color loss of meat and fish
From the text: as §1, §2

[4] = Color change of sliced apple; conditions: Granny smith apples; P-E; control ~5 hours

## C=CCN=C=S [AI, allyl isothiocyanate]
fungus; Example 24, Red cherries, 1 hr P-E, control 2 days
  Spoilage Time - Sample: 7 days
fungus; Example 24, Red cherries, 1 hr P-E, control 2 days, listed as allyl isothiocyanate
  Spoilage Time - Sample: > 7 days
fungus; Example 29, Cauliflower, 0.25 hr P-E, control 2 days
  Spoilage Time - Sample: 4 days
fungus; Example 29, Cauliflower, 0.25 hr P-E, control 2 days, listed as allyl isothiocyanate
  Spoilage Time - Sample: > 4 days
fungus; Example 31, Cucumbers, 0.20% solution, control 5 days
  Spoilage Time - Sample: 19 days
fungus; Example 31, Cucumbers, 0.20% solution, control 5 days, listed as allyl isothiocyanate
  Spoilage Time - Sample: > 19 days
fungus; Example 32, Farmer's cheese, 0.5 hr P-E, control 5 days
  Spoilage Time - Sample: 34 days
fungus; Example 34, 5.3% Gelatin, 175 bloom in water, 0.25 ml of 0.42% solution, control 9 days
  Spoilage Time - Sample: 47 days
fungus; Example 34, 5.3% Gelatin, 175 bloom in water, 0.25 ml of 0.42% solution, control 9 days, listed as allyl isothiocyanate
  Spoilage Time - Sample: > 47 days
fungus; Example 36, Green grape juice, 0.02 g, control 7 days
  Spoilage Time - Sample: 30 days
fungus; Example 36, Green grape juice, 0.02 g, control 7 days, listed as allyl isothiocyanate
  Spoilage Time - Sample: > 30 days
fungus; Example 38, Guar beans, 1 hr P-E, control 6 days
  Spoilage Time - Sample: 40 days
fungus; Example 38, Guar beans, 1 hr P-E, control 6 days, listed as allyl isothiocyanate
  Spoilage Time - Sample: > 40 days
fungus; Example 41, Karela (L), 2 hrs P-E, control 7 days
  Spoilage Time - Sample: 33 days
fungus; Example 41, Karela (L), 2 hrs P-E, control 7 days, listed as allyl isothiocyanate
  Spoilage Time - Sample: > 33 days
fungus; Example 43, Mixed Legumes, 64 hrs P-E, 6 hrs soaking, dilute, control 11 days
  Spoilage Time - Sample: 17 days
fungus; Example 43, Mixed Legumes, 64 hrs P-E, 6 hrs soaking, dilute, control 11 days, listed as allyl isothiocyanate
  Spoilage Time - Sample: > 17 days
fungus; Example 46, Parval (M), 2 hrs P-E, control 9 days
  Spoilage Time - Sample: 16 days
fungus; Example 46, Parval (M), 2 hrs P-E, control 9 days, listed as allyl isothiocyanate
  Spoilage Time - Sample: > 16 days
fungus; Example 48, Puri (Indian fried bread), 16 hrs P-E, control 5 days, listed as allyl isothiocyanate
  Spoilage Time - Sample: > 70 days
fungus; Example 54, Shelled peanuts, 0.42% solution, control 5 days
  Spoilage Time - Sample: 8 days
fungus; Example 54, Shelled peanuts, 0.42% solution, control 5 days, listed as allyl isothiocyanate
  Spoilage Time - Sample: > 8 days
fungus; Example 55, Sprouted Mung, Sachet, control 7 days
  Spoilage Time - Sample: 24 days
fungus; Example 55, Sprouted Mung, Sachet, control 7 days, listed as allyl isothiocyanate
  Spoilage Time - Sample: > 21 days
fungus; Example 61, Tomato juice, 0.02 g, control 3 days
  Spoilage Time - Sample: 20 days
fungus; Example 61, Tomato juice, 0.02 g, control 3 days, listed as allyl isothiocyanate
  Spoilage Time - Sample: > 20 days
[1]; Example 16, Raw cow milk, listed as allyl isothiocyanate
  Spoilage Time - Sample: > 24 days

## CCN=C=S [EI, ethyl isothiocyanate]
[1]; Example 84, Raw cow milk, listed as ethyl isothiocyanate
  Spoilage Time - Sample: > 24 days
Black fungus
  Fungus growth: > 35 days

## S=C=Nc1ccccc1 [PI, phenyl isothiocyanate]
Black fungus
  Fungus growth: > 35 days

## S [hydrogen sulfide, Hydrogen sulfide]
[2]; flowery vegetables
  Shelf-life of flowery vegetables: extended shelf-life
[2]; tofu
  Effectiveness as shelf-life extender: effective
[2]; variety of foods
  Effectiveness for controlling one or more spoilage criteria: effective to a greater or lesser extent
[3]
  Improvements with meat and fish: demonstrated improvements
[4]
  Spoilage Time - Sample (Browning of flesh): 3 days

## OB(O)c1ccccc1 [phenylboronic acid, Phenylboronic acid]
Black fungus
  Fungus growth: > 35 days
